According to the odorant receptor screen of Mainland et al. (2015):
Where “and” joins values, the source holds several entries; their conditions need not be identical. Equal entries are not always repeated. This is one part of the list. Single wells; the ratio to wells without odorant was worked out here, and repeats agree poorly.

Tests used:
Test in all cases: odorant receptor activation (CRE luciferase / Renilla) (fold of no-odor wells); higher = more activation
Conditions in all cases: 100 µM
[1] = test system: OR2A2 F280L clone 1541
[2] = test system: OR2A2 clone 1476
[3] = test system: OR2A25 clone 1387
[4] = test system: OR2A4 clone 1386
[5] = test system: OR2A42 clone 1565
[6] = test system: OR2A5 clone 1437
[7] = test system: OR2A7 clone 1077
[8] = test system: OR2A7 clone 1543
[9] = test system: OR2AE1 I77T clone 1079
[10] = test system: OR2AG1 clone 1112
[11] = test system: OR2AG2 Y28C/R54P/R299G clone 1486
[12] = test system: OR2AJ1 M1V clone 1448
[13] = test system: OR2AK2 V188M clone 1415
[14] = test system: OR2AP1 clone 1256
[15] = test system: OR2AT4 clone 1522
[16] = test system: OR2B11 clone 1418
[17] = test system: OR2B2 clone 1333
[18] = test system: OR2B2 clone 1544
[19] = test system: OR2B3 clone 1063
[20] = test system: OR2B6 clone 1436

Structure (SMILES) | odorant receptor activation [1] | odorant receptor activation [2] | odorant receptor activation [3] | odorant receptor activation [4] | odorant receptor activation [5] | odorant receptor activation [6] | odorant receptor activation [7] | odorant receptor activation [8] | odorant receptor activation [9] | odorant receptor activation [10] | odorant receptor activation [11] | odorant receptor activation [12] | odorant receptor activation [13] | odorant receptor activation [14] | odorant receptor activation [15] | odorant receptor activation [16] | odorant receptor activation [17] | odorant receptor activation [18] | odorant receptor activation [19] | odorant receptor activation [20]
c1ccc(Oc2ccccc2)cc1 [diphenyl ether] | 1.09 | 1.05 | 0.86 | 1.04 | 0.778 | 1.27 | 1.04 | 1.34 | 0.927 | 1.03 | 1.2 | 0.964 | 0.899 | 1.12 | 1.27 | 0.877 | 1.27 | 1.44 | 0.78 | 1.36
CC(=O)C(C)=O [diacetyl] | 1.35 | 1.35 | 1.17 | 1.13 | 0.789 | 1.55 | 0.963 | 1.06 | 1.04 | 1.06 | 1.36 | 1.12 | 1.23 | 1.06 | 1.57 | 0.902 | 1.18 | 1.46 | 1.16 | 1.56
CCCCCCCCCCC=O [undecanal] | 0.792 | 0.911 | 1.24 | 1.13 | 0.894 | 1.07 | 0.858 | 0.767 | 0.924 | 0.807 | 0.856 | 0.968 | 1.28 | 0.945 | 1.09 | 1.05 | 1.06 | 1.04 | 1.1 | 1.08
CC(=O)OC(C)(C)C1CC=C(C)CC1 (stereo not given) [terpinyl acetate] | 1.09 | 0.995 | 1.26 | 1.1 | 0.723 | 0.891 | 1.51 | 1.06 | 1.13 | 1.1 | 0.964 | 0.958 | 0.976 | 0.934 | 1.29 | 1.06 | 0.812 | 1.24 | 1.52 | 1.01
CCCCCC(=O)O [caproic acid] | 0.852 | 0.9 | 0.233 | 0.181 | 0.634 | 0.266 | 0.949 | 0.629 | 0.885 | 0.998 | 0.708 | 0.121 | 0.234 | 0.917 | 1.16 | 0.273 | 0.896 | 0.896 | 0.985 | 0.209
CC(C)CCC(=O)O [4-methylvaleric acid] | 0.963 | 0.955 | 1.22 | 0.394 | 0.722 | 0.901 | 1.51 | 0.964 | 12.3 | 4.53 | 0.886 | 1.03 | 0.886 | 1.16 | 1.3 | 1.42 | 1.24 | 0.969 | 4.34 | 1.11
CCCCCCCC=CC=O [2-decenal] | 1.61 | 2.08 | 1.23 | 1.88 | 1.16 | 0.797 | 3.26 | 1.36 | 21.7 | 9.87 | 1.76 | 1.09 | 1.14 | 1.94 | 1.88 | 1.36 | 0.587 | 1.58 | 10.6 | 1.12
O=C1CCCCCCCCCCCCCCO1 [pentadecalactone] | 0.931 | 0.928 | 1.14 | 1.25 | 0.762 | 1.35 | 0.733 | 0.707 | 0.888 | 1.26 | 0.758 | 1.22 | 1.18 | 0.717 | 0.952 | 1.23 | 0.538 | 0.846 | 0.749 | 1.24
C=C(C)C1CC=CCC1 (stereo not given) [r-limonene] | 1.01 | 1.11 and 0.553 and 0.744 | 1.39 and 1.03 | 1.51 and 0.859 | 0.789 | 1.6 and 1.01 | 1.08 and 0.562 | 0.962 | 1.24 and 2.17 | 0.902 and 0.646 | 1.05 and 0.962 and 0.929 | 1.16 and 0.894 and 0.687 | 1.3 and 0.985 | 0.87 and 0.701 | 1.02 and 1.16 and 0.798 | 1.72 and 0.705 | 0.731 and 0.332 | 1.14 | 1.2 and 1.64 | 1.24 and 0.969
CCCCCCCOC(C)=O [heptyl acetate] | 1.33 and 1.5 | 0.921 and 1.31 | 0.968 | 0.886 | 0.741 | 0.999 | 0.948 | 0.937 and 0.921 | 1.04 | 1.34 | 0.572 and 1.23 | 1.04 | 1.21 | 0.747 and 1.25 | 0.77 and 1.62 | 0.998 | 0.823 and 0.789 | 0.763 and 1.02 | 0.612 | 0.883
CC12CCC(C1)C(C)(C)C2=O (stereo not given) [fenchone] | 1.09 | 1.18 | 0.835 | 1.06 | 0.801 | 1.14 | 1.04 | 0.983 | 1.15 | 1.16 | 1.08 | 0.904 | 1.06 | 0.978 | 1.41 | 0.952 | 1.03 | 1.21 | 0.983 | 1.06
CC12CCC(CC1)C(C)(C)O2 [cineole] | 0.999 | 1.15 | 0.219 | 0.154 | 0.864 | 0.269 | 0.683 | 0.856 | 0.879 | 0.75 | 0.776 | 0.185 | 0.2 | 0.903 | 0.84 | 0.307 | 0.948 | 0.73 | 0.952 | 0.199
COC(=O)c1ccccc1O [methyl salicylate] | 0.704 | 0.99 | 1.18 | 0.978 | 0.856 | 1.33 | 1.01 | 0.874 | 1.05 | 0.888 | 0.931 | 1.11 | 1.03 | 0.68 | 1.16 | 0.849 | 0.784 | 0.905 | 1.07 | 1.11
CCCCCCCC=O [octyl aldehyde] | 0.831 | 0.999 | 0.929 | 0.909 | 0.848 | 0.72 | 0.817 | 0.798 | 1.06 | 1.15 | 0.854 | 0.847 | 0.736 | 0.943 | 0.976 | 0.81 | 1.15 | 0.97 | 1.06 | 0.691

Three compounds out of the list, ordered by molecular weight, high to low.
Structure (SMILES) | odorant receptor activation [1] | odorant receptor activation [2] | odorant receptor activation [3] | odorant receptor activation [4] | odorant receptor activation [5] | odorant receptor activation [6] | odorant receptor activation [7] | odorant receptor activation [8] | odorant receptor activation [9] | odorant receptor activation [10] | odorant receptor activation [11] | odorant receptor activation [12] | odorant receptor activation [13] | odorant receptor activation [14] | odorant receptor activation [15] | odorant receptor activation [16] | odorant receptor activation [17] | odorant receptor activation [18] | odorant receptor activation [19] | odorant receptor activation [20]
CCCCCCCC=CC=O [2-decenal] | 1.61 | 2.08 | 1.23 | 1.88 | 1.16 | 0.797 | 3.26 | 1.36 | 21.7 | 9.87 | 1.76 | 1.09 | 1.14 | 1.94 | 1.88 | 1.36 | 0.587 | 1.58 | 10.6 | 1.12
COC(=O)c1ccccc1O [methyl salicylate] | 0.704 | 0.99 | 1.18 | 0.978 | 0.856 | 1.33 | 1.01 | 0.874 | 1.05 | 0.888 | 0.931 | 1.11 | 1.03 | 0.68 | 1.16 | 0.849 | 0.784 | 0.905 | 1.07 | 1.11
CC(=O)C(C)=O [diacetyl] | 1.35 | 1.35 | 1.17 | 1.13 | 0.789 | 1.55 | 0.963 | 1.06 | 1.04 | 1.06 | 1.36 | 1.12 | 1.23 | 1.06 | 1.57 | 0.902 | 1.18 | 1.46 | 1.16 | 1.56
